The values that follow come from PMC8980073.

By UniProt entry, the sequences of proteins in these tests, tags left out. Where a name states a change or a piece, a line headed by the entry shows the natural chain unless it says otherwise.
UniProt P36411: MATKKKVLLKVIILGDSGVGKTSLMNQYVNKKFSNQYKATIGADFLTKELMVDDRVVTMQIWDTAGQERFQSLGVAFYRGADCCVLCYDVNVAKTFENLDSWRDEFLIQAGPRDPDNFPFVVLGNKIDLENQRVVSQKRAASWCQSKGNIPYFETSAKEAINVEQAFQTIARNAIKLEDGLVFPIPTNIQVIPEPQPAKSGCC
UniProt Q1ZXL0: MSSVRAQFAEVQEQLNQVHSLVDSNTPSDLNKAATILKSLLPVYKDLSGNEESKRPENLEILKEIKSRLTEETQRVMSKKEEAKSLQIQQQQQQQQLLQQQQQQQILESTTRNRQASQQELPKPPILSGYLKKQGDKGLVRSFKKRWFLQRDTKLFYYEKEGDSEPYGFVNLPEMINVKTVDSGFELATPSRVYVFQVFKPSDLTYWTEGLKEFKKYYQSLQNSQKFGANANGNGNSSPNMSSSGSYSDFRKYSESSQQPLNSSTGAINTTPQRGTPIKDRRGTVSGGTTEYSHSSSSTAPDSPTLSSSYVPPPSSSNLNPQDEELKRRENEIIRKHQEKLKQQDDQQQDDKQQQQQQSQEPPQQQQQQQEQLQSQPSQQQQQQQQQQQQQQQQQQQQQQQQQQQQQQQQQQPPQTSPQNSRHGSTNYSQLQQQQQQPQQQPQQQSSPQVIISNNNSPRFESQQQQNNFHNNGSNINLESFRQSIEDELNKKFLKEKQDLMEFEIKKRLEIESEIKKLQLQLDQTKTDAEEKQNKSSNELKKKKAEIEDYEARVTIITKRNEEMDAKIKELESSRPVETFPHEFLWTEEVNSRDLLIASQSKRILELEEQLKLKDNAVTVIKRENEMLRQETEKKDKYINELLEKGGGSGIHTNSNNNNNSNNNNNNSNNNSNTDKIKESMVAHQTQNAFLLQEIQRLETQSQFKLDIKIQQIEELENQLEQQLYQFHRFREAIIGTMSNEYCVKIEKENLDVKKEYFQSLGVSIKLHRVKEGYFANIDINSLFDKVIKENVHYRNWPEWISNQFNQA

For assay [1], the target named is T1, GST-Rab5A^Q68L (constitutively active form) (Dictyostelium discoideum) (UniProt Q86JP3).
T1 sequence: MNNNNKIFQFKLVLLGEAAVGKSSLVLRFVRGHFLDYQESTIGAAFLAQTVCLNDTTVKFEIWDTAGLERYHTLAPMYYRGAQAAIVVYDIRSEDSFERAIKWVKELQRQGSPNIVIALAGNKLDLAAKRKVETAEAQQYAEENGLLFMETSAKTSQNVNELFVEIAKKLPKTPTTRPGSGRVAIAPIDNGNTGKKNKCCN
Description: pull-down; glutathione sepharose beads with 15 μg GST-Rab protein incubated with lysate of Dictyostelium cells expressing the GFP fusion, 4 °C, 2 h; 20 mM Hepes pH 7.2, 100 mM NaCl, 0.3% CHAPS, 5 mM MgCl2, 1 mM DTT; anti-GFP blot; only the target purified.

Assay [2] addresses GST-Rab7A^T22N (dominant negative form) (Dictyostelium discoideum) (UniProt P36411). Described as above.
Assay [3] concerns the target T2, GST-Rab5A^S23N (dominant negative form) (Dictyostelium discoideum) (UniProt Q86JP3).
T2 sequence: T1 sequence with S23N, L68Q
Described as above.

For assay [4], the target named is GST-Rab7A^Q67L (constitutively active form) (Dictyostelium discoideum) (UniProt P36411). The assay is described as above.
Assay [5] addresses T3, Rab5A, wild type, yeast two-hybrid bait (Dictyostelium discoideum) (UniProt Q86JP3).
T3 sequence: T1 sequence with L68Q
In words: two-hybrid; Matchmaker GAL4 Two-Hybrid System 3, S. cerevisiae AH109; PripA, PripA-ΔPH or TbcrA-TBC as prey on the Gal4 activation domain (pGADT7), Rab GTPases on the Gal4 DNA binding domain (pGBKT7).

Assay [6] concerns the target T4, Rab5A^S23N, dominant negative form, yeast two-hybrid bait (Dictyostelium discoideum) (UniProt Q86JP3).
T4 sequence: T1 sequence with S23N, L68Q
Described as above.

Assay [7] deals with T5, Rab5A^Q68L, constitutively active form, yeast two-hybrid bait (Dictyostelium discoideum) (UniProt Q86JP3).
T5 sequence: T1 sequence
The description is as above.

Assay [8] concerns the target T6, Rab7B, wild type, yeast two-hybrid bait (Dictyostelium discoideum) (UniProt Q54K69).
T6 sequence: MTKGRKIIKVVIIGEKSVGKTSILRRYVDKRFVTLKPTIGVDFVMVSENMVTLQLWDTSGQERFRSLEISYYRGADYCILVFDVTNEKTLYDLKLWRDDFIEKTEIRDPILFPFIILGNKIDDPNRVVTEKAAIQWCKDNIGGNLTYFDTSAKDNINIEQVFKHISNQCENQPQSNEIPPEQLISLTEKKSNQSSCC
The description is as above.

Positions count from the first letter of the chain named. These are yes or no findings as the source states them, for the method shown. For some assays here: Binding can be weak; no strength is given. For some assays here: In cells and extracts the contact can be indirect. For some assays here: Where a sequence is shown, tags or fusion partners need not be part of it.

In the case of GFP-TbcrA (Dictyostelium discoideum), the binding entry in assay [1] was “binds”.
As to PripA-GFP (from UniProt Q1ZXL0), the binding entry is given as “no binding” in assay [1], “no binding” in assay [2], “no binding” in assay [3] and “binds” in assay [4].
Turning to “PripA-ΔPH, yeast two-hybrid prey (Dictyostelium discoideum) (domain or fragment)”, the binding result in assay [5] is reported as “no binding”; in assay [6], “no binding”; in assay [7] it was “no binding”; in assay [8], “binds”.
Regarding “PripA-ΔPH-GFP (Dictyostelium discoideum) (domain or fragment)”, the binding entry in assay [1] and in assay [3] was “no binding” in each case.
